The values that follow are results of earlier work, collected in patent publication US10407430B2, “Janus kinase 1 selective inhibitor and pharmaceutical use thereof” (YANG JI CHEMICAL CO., LTD., priority 2015, dated 2019).

Where a name gives a salt, the structure may show the parent alone.

The conditions of the series: oral administration, 10 mg/kg, comparative drug (EMA); cited from earlier work.

As for `CC1CCN(C(=O)CC#N)CC1N(C)c1ncnc2[nH]ccc12` (stereo not shown) [tofacitinib citrate, 3-{4-methyl-3-[methyl-(7H-pyrrolo[2,3-d]pyrimidine-4-yl)-amino]-piperidine-1-yl}-3-oxo-propionitrile], the Tmax is 18.6 min.
